The target in this test is Med17-HA (S. cerevisiae (endogenous in S288c)) (UniProt P32569). Nature of the test: affinity purification with mass spectrometry; CoIP of Med17-HA on anti-HA magnetic beads from cryoground yeast lysate, 2 h at 4 °C; 20 mM HEPES pH 7.5, 300 mM KOAc, 10% glycerol, 0.01% NP-40, 6 mM MnSO4, 1 mM DTT, Cyanase nuclease; parallel control CoIP from 15N-labelled wild type cells, mixing after purification (MAP); GeLC-MS/MS, three biological replicates.

By UniProt entry, the sequences of proteins in these tests, tags left out.
UniProt P32569: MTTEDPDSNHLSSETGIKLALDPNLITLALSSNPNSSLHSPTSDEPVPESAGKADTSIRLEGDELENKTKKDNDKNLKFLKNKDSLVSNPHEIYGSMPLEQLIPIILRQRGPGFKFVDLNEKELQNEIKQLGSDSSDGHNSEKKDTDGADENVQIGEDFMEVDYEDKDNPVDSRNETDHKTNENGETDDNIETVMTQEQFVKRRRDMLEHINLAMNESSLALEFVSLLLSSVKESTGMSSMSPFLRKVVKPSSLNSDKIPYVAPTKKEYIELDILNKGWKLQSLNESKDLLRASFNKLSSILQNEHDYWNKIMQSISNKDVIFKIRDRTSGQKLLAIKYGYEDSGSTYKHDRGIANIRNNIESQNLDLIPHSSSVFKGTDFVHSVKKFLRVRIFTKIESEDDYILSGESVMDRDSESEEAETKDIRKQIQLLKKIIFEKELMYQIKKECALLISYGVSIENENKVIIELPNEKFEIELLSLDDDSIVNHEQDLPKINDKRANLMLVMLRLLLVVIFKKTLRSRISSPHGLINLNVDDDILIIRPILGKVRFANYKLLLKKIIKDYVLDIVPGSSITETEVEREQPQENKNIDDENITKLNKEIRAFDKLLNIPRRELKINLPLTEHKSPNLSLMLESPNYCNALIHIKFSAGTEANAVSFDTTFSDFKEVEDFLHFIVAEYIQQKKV

Results are given in words; binding and its absence hold for the method and conditions named. Binding seen in cells or lysates may run through a third protein. These calls come from enrichment with a bait or labelling near it, and not all partners need be listed.

B1: Ioc2 (protein, UniProt Q12072 1-812)
chain: MRTKRTRGTRNVGASMPAGAANADSEDWKEYVSEDIIAQLNKHQLPYSEILDEKIADLANHWHFQYVMAWLSNVCESYTTTTFNTDQYGGSSTKCLWKNIKFDEGVFVTDVFSKIDGKDSNYYNDEVDVDEGSQNLYDRIRLQLLHQLAGNKSGQLKDWNVIVNHHLQNSSAYSDLVTDLPFLELEIARQFDIIYSIIKLIEMKNMIFKNYLANNLHLFTFSEVILDDDNSGGEEMKSLFALPNVGVLVKKTIHRVKEGSSSQVSQTLNIPIKLQNCTIKESDPDIPDSVELIHLEYSHDIDAYLQSITIDYDVITTNWGSMLEYWSENKSSKAIDEFITNLIPVYAEHRLYSAKLLANREKERAIAELMTRRKRSSRLVAKEEENKKKDLESEWFEKLDEREQFIRHRNKLVSKEIKKIKDLLWNQLWQLYDQDYRDEKLTRRNELKDRSGSGTPFFETSLGREEDNPLNEIDIGVLDHGPNFQSSIIPVEPPIPGTVGPLQTGDVPELPSDFCITKEELDELANYGIFTPQQEPDNQDSVFQCPGEPELAPMIITEDTETDLFNNRPLICCDHCYRWQHWECQPPKIIELISSTTKSPQHTLSQRDFGVIIMGNSHGNRRSSRRPQSTLEPSTKSSRPTDKRKPLSECSTFICAWCIRDLELELRNIFVPELKIIRAKQRKQQEDRERRKKMKEEKKRLEELAKKRELTESVSPPVFNNAFANMSSSTTPSIAAYEKTNPAINPAPNVNAAHPIITYSQQTGSKTVPQAPQAPQTSQASIQPQQQQQQQQQQQPLHPKEQNFHFQFPPTN
In the case of B1, the binding result is reported as “binds”.

B2: Yo11a (protein, UniProt Q92392 1-440)
chain: MESQQLSNYPQISHGSACASVTSKEVHTNQDPLDVSASKTEECEKASTKANSQQTTTPASSAVPENPHHASPQPASVPPPQNGPYPQQCMMTQNQANPSGWSFYGHPSMIPYTPYQMSPMYFPPGPQSQFPQYPSSVGTPLSTPSPESGNTFTDSSSADSDMTSTKKYVRPPPMLTSPNDFPNWVKTYIKFLQNSNLGGIIPTVNGKPVRQITDDELTFLYNTFQIFAPSQFLPTWVKDILSVDYTDIMKILSKSIEKMQSDTQEANDIVTLANLQYNGSTPADAFETKVTNIINRLNNNGIHINNKVACQLIMRGLSGEYKFLRYTRHRHLNMTVAELFLDIHAIYEEQQGSRNSKPNYRRNLSDEKNDSRSYTNTTKPKVIARNPQKTNNSKSKTARAHNVSTSNNSPSTDNDSISKSTTEPIQLNNKHDLHLRPGTY
Turning to B2, the binding result is listed as “binds”.

B3: Isw2 (protein, UniProt Q08773 1-1120)
chain: MTTQQEEQRSDTKNSKSESPSEVLVDTLDSKSNGSSDDDNIGQSEELSDKEIYTVEDRPPEYWAQRKKKFVLDVDPKYAKQKDKSDTYKRFKYLLGVTDLFRHFIGIKAKHDKNIQKLLKQLDSDANKLSKSHSTVSSSSRHHRKTEKEEDAELMADEEEEIVDTYQEDIFVSESPSFVKSGKLRDYQVQGLNWLISLHENKLSGILADEMGLGKTLQTISFLGYLRYVKQIEGPFLIIVPKSTLDNWRREFLKWTPNVNVLVLHGDKDTRADIVRNIILEARFDVLITSYEMVIREKNALKRLAWQYIVIDEAHRIKNEQSALSQIIRLFYSKNRLLITGTPLQNNLHELWALLNFLLPDIFGDSELFDEWFEQNNSEQDQEIVIQQLHSVLNPFLLRRVKADVEKSLLPKIETNVYVGMTDMQIQWYKSLLEKDIDAVNGAVGKREGKTRLLNIVMQLRKCCNHPYLFEGAEPGPPYTTDEHLIFNSGKMIILDKLLKRLKEKGSRVLIFSQMSRLLDILEDYCYFRDFEYCRIDGSTSHEERIEAIDEYNKPNSEKFVFLLTTRAGGLGINLVTADTVILFDSDWNPQADLQAMDRAHRIGQKKQVHVYRFVTENAIEEKVIERAAQKLRLDQLVIQQGTGKKTASLGNSKDDLLDMIQFGAKNMFEKKASKVTVDADIDDILKKGEQKTQELNAKYQSLGLDDLQKFNGIENQSAYEWNGKSFQKKSNDKVVEWINPSRRERRREQTTYSVDDYYKEIIGGGSKSASKQTPQPKAPRAPKVIHGQDFQFFPKELDALQEKEQLYFKKKVNYKVTSYDITGDIRNEGSDAEEEEGEYKNAANTEGHKGHEELKRRIEEEQEKINSAPDFTQEDELRKQELISKAFTNWNKRDFMAFINACAKYGRDDMENIKKSIDSKTPEEVEVYAKIFWERLKEINGWEKYLHNVELGEKKNEKLKFQETLLRQKIEQCKHPLHELIIQYPPNNARRTYNTLEDKFLLLAVNKYGLRADKLYEKLKQEIMMSDLFTFDWFIKTRTVHELSKRVHTLLTLIVREYEQPDANKKKRSRTSATREDTPLSQNESTRASTVPNLPTTMVTNQKDTNDHVDKRTKIDQEA
As for B3, the binding result is recorded as “binds”.

Source of the values: publication PMC5327418.
